Measured values as given in patent US20240270728A1, “NEW SUBSTITUTED QUINOLINES AS FUNGICIDES” (BASF SE, priority 2021, published 2024).
Some entries share one result that the patent states for a list of compounds. For some of these results: At least one structure is not confirmed: it was looked up by name or label, or the drawing left a doubt.

Tests used:
Botrytis cinerea [1] = test: Activity against the grey mold Botrytis cinerea in the microtiterplate test; assay type: cell-based; conditions: 31 ppm active substance; relative growth vs compound-free control (100%)
Botrytis cinerea [2] = test: Long lasting control of Botrytis cinerea on leaves of green pepper (100 g/ha); assay type: in vivo; conditions: inoculated 7 days after treatment, assessed after 5 days, untreated plants 90% infected
Botrytis cinerea [3] = test: Preventative fungicidal control of Botrytis cinerea on leaves of green pepper (250 ppm); assay type: in vivo; conditions: 250 ppm spray, inoculated next day, assessed after 5 days, untreated plants 90% infected
Botrytis cinerea [4] = test: Preventative fungicidal control of Botrytis cinerea on leaves of green pepper (100 g/ha); assay type: in vivo; conditions: inoculated next day, assessed after 5 days, untreated plants 100% infected
[5] = system: Pyrenophora teres Qoi (FL129) resistant isolate; test: Activity against Pyrenophora teres Qoi (FL129) resistant isolate in the microtiterplate test; assay type: cell-based; conditions: 31 ppm active substance; DOB media pH 7; relative growth vs compound-free control (100%)
Corynespora cassiicola = test: Activity against Corynespora cassiicola in the microtiterplate test; assay type: cell-based; conditions: 31 ppm active substance; DOB media pH 7; relative growth vs compound-free control (100%)
[6] = system: Colletotrichum orbiculare; test: Activity against Colletotrichum orbiculare in the microtiterplate test; assay type: cell-based; conditions: 31 ppm active substance; DOB media pH 7; relative growth vs compound-free control (100%)
Sclerotinia sclerotiorum [7] = test: Preventative fungicidal control of white mold on soybean caused by Sclerotinia sclerotiorum; assay type: in vivo; conditions: 250 ppm spray, inoculated next day, assessed after 6 days, untreated plants 90% infected
Fusarium culmorum = test: Activity against Fusarium culmorum in the microtiterplate test; assay type: cell-based; conditions: 31 ppm active substance; relative growth vs compound-free control (100%)
Fusarium gramminearis = test: Activity against Fusarium gramminearis in the microtiterplate test; assay type: cell-based; conditions: 31 ppm active substance; DOB media pH 7; relative growth vs compound-free control (100%)
Septoria tritici = test: Activity against the leaf blotch on wheat caused by Septoria tritici in the microtiterplate test; assay type: cell-based; conditions: 31 ppm active substance; relative growth vs compound-free control (100%)
[8] = system: Corynespora cassiicola (CORYCA-G) G413A mutant; test: Activity against Corynespora cassiicola (CORYCA-G) G413A mutant in the microtiterplate test; assay type: cell-based; conditions: 31 ppm active substance; DOB media pH 7; relative growth vs compound-free control (100%)
Sclerotinia sclerotiorum [9] = test: Preventative fungicidal control of white mold on oilseed rape caused by Sclerotinia sclerotiorum; assay type: in vivo; conditions: 100 g/ha, inoculated next day, assessed after 14 days, untreated plants 100% infected
Leptosphaeria nodorum = test: Activity against Leptosphaeria nodorum in the microtiterplate test; assay type: cell-based; conditions: 31 ppm active substance; DOB media pH 7; relative growth vs compound-free control (100%)
Microdochium nivale = test: Activity against Microdochium nivale in the microtiterplate test; assay type: cell-based; conditions: 31 ppm active substance; DOB media pH 7; relative growth vs compound-free control (100%)
Monilinia laxa = test: Activity against Monilinia laxa in the microtiterplate test; assay type: cell-based; conditions: 31 ppm active substance; DOB media pH 7; relative growth vs compound-free control (100%)
Leptosphaeria maculans = test: Activity against Leptosphaeria maculans in the microtiterplate test; assay type: cell-based; conditions: 31 ppm active substance; DOB media pH 7; relative growth vs compound-free control (100%)
Ustilago maydis = test: Activity against Ustilago maydis in the microtiterplate test; assay type: cell-based; conditions: 31 ppm active substance; DOB media pH 7; relative growth vs compound-free control (100%)

| SMILES | growth of the pathogen (Botrytis cinerea [1]) [%] | growth of the pathogen (% diseased leaf area) (Botrytis cinerea [2]) | growth of the pathogen (% diseased leaf area) (Botrytis cinerea [3]) | growth of the pathogen (% diseased leaf area) (Botrytis cinerea [4]) | growth of the pathogen [5] [%] | growth of the pathogen (Corynespora cassiicola) [%] | growth of the pathogen [6] [%] | growth of the pathogen (% diseased leaf area) (Sclerotinia sclerotiorum [7]) | growth of the pathogen (Fusarium culmorum) [%] | growth of the pathogen (Fusarium gramminearis) [%] | growth of the pathogen (Septoria tritici) [%] | growth of the pathogen [8] [%] | growth of the pathogen (% diseased leaf area) (Sclerotinia sclerotiorum [9]) | growth of the pathogen (Leptosphaeria nodorum) [%] | growth of the pathogen (Microdochium nivale) [%] | growth of the pathogen (Monilinia laxa) [%] | growth of the pathogen (Leptosphaeria maculans) [%] | growth of the pathogen (Ustilago maydis) [%] |
| --- | --- | --- | --- | --- | --- | --- | --- | --- | --- | --- | --- | --- | --- | --- | --- | --- | --- | --- |
| CCC1(CC)N=C(c2cnc3c(F)cccc3c2)c2ccccc2O1 [Ex-17] | ≤ 17 | at most 13% | at most 8% | at most 15% | ≤ 20 | ≤ 17 | ≤ 13 | at most 15% | ≤ 16 | ≤ 20 | ≤ 18 | ≤ 8 | at most 13% | – | – | – | – | – |
| Cc1cccc2c1OC1(CCC1)N=C2c1cnc2c(F)cccc2c1 [Ex-20] | ≤ 17 | – | at most 8% | at most 15% | – | ≤ 17 | ≤ 13 | at most 15% | – | – | – | – | at most 13% | ≤ 4 | ≤ 19 | ≤ 19 | – | – |
| CC1(C)CCC2(C1)N=C(c1cnc3c(F)cccc3c1)c1ccccc1O2 (stereo not shown) [Ex-26] | – | – | at most 8% | – | – | ≤ 17 | ≤ 13 | – | – | ≤ 20 | – | ≤ 8 | – | ≤ 4 | ≤ 19 | – | ≤ 16 | – |
| Fc1cccc2cc(C3=NC4(CCOC4)Oc4ccccc43)cnc12 (stereo not shown) [Ex-36] | – | – | – | – | ≤ 20 | ≤ 17 | ≤ 13 | – | – | ≤ 20 | – | ≤ 8 | – | ≤ 4 | ≤ 19 | ≤ 19 | ≤ 16 | ≤ 8 |
| COCC1(C)N=C(c2cnc3c(F)cccc3c2)c2ccccc2O1 (stereo not shown) [Ex-44] | ≤ 17 | at most 13% | – | at most 15% | ≤ 20 | ≤ 17 | ≤ 13 | – | ≤ 16 | ≤ 20 | ≤ 18 | ≤ 8 | at most 13% | ≤ 4 | ≤ 19 | ≤ 19 | ≤ 16 | – |
| CC1(C2CCC2)N=C(c2cnc3c(F)cccc3c2)c2cccc(Cl)c2O1 (stereo not shown) [Ex-46] | ≤ 17 | at most 13% | – | at most 15% | – | ≤ 17 | ≤ 13 | – | – | – | ≤ 18 | – | at most 13% | ≤ 4 | ≤ 19 | ≤ 19 | – | – |
| CC1(C2CCC2)N=C(c2cnc3c(F)cccc3c2)c2cccc(F)c2O1 (stereo not shown) [Ex-47] | ≤ 17 | at most 13% | – | at most 15% | – | ≤ 17 | ≤ 13 | – | – | – | ≤ 18 | – | at most 13% | ≤ 4 | ≤ 19 | ≤ 19 | – | – |
| CC1(C2CC2)N=C(c2cnc3c(F)cccc3c2)c2cccc(F)c2O1 (stereo not shown) [Ex-52] | ≤ 17 | at most 13% | – | at most 15% | ≤ 20 | ≤ 17 | ≤ 13 | – | ≤ 16 | ≤ 20 | ≤ 18 | ≤ 8 | at most 13% | ≤ 4 | ≤ 19 | ≤ 19 | ≤ 16 | – |
